Drawing on PubChem BioAssay AID2685 (National Center for Advancing Translational Sciences (NCATS), 2010), this text covers cell number change and AC50 for 36 molecules.

Some of the results follow. These are further read-outs of the screen, such as a control signal, another cell line or another target. No call is given for them. Most of these compounds were active or inconclusive in the main read-out, so they are no random draw. Potencies come from curve fits of mixed quality, noted in brackets.

The nature of this experiment: qHTS Assay for Lipid Storage Modulators in Drosophila S3 Cells.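 For cell number change: cells counted by Cell Tracker Red CMTPX staining in the red channel.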 The following applies: BODIPY lipid droplet fluorescence, 18-24 h; for cell number change: measured here: cell count max response, cells fed with added oleic acid. Put shortly: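 Laser-scanning cytometry quantifies lipid droplet accumulation (500–530 nm total intensity; droplet/cell object ratio) in oleic acid-fed (400 uM added) Drosophila S3 cells treated with a concentration series. 20 uM Triacsin C defined 100% inhibition.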
On the technique in general: qHTS replaces the single test concentration by a dilution series.

Where [1] appears, read: measured here: cell number channel AC50, cells fed with added oleic acid.
Where [2] appears, read: measured here: lipid fluorescence (Fed channel) AC50, cells fed with added oleic acid.

As for `CC(C)(C)c1ccc(/C=C2\Oc3cc(O)ccc3C2=O)cc1`, the cell number change is -36.9%. Also, under setting [1], the AC50 was 0.651 µM [falling, partial curve]. For the same molecule, the AC50 under setting [2] is 5.17 µM [falling, full curve, poor fit].

In the case of `CC(C)C(NC(=O)CN1C(=O)c2cccc3cccc1c23)C(C)C`, the cell number change was -23.5%. The half-maximal activity concentration (AC50) under setting [2] is 6.51 µM [falling, partial curve].

As to `Cn1c(=O)c2c(nc(NCCc3ccccc3)n2CC(=O)NCCc2ccccc2)n(C)c1=O`, the AC50 is 1.64 µM [rising, partial curve] under setting [1] and 1.64 µM [rising, full curve] under setting [2].

For the molecule `CCOC(=O)CNC(=O)C1(/C=C/c2ccccc2)CC(=O)N1c1ccc(OC)cc1` (stereo not given), the cell number change is -11.7%. Moreover, the concentration at half-maximal activity (AC50) under setting [2] is 0.731 µM [falling, partial curve, poor fit].

Consider `Cc1ccc(S(=O)(=O)NCCN2CCOCC2)cc1C`, for which the cell number change is -4.45%. Besides, the AC50 under setting [2] was 0.461 µM [falling, single point].

As for `CC(C)c1ccccc1NC(=O)COC(=O)COc1ccccc1[N+](=O)[O-]`, the AC50 under setting [2] is 29.1 µM [rising, single point].

In the case of `CN(CCc1cn[nH]c1)Cc1nc(C(c2ccccc2)c2ccccc2)no1`, the cell number change is -18.7%. Besides, the half-maximal activity concentration (AC50) under setting [2] was 14.6 µM [falling, partial curve].

In the case of `Cc1cc(C)n(/N=C/c2ccc(C(C)C)cc2)c(=O)c1C#N`, the cell number change was found to be 30.2%. Also, under setting [1], the AC50 was 13 µM [rising, partial curve, poor fit]. Further, the AC50 under setting [2] was 14.6 µM [rising, partial curve, poor fit].

Turning to `Cc1c(NC(=O)C(c2ccccc2)c2ccccc2)cccc1C(=O)O`, the cell number change worked out at 5.73%.

`Cc1cccc(NC(=O)N[C@@H](C)C(=O)O)c1`: the cell number change is 3.25%.

Regarding `COc1ccccc1N1C(=O)CCC1(C#N)c1ccccc1` (stereo not given), the cell number change was -10%.

As to `O=C(CNC(=O)c1ccccc1Cl)OCC(=O)N1CCc2ccccc21`, the cell number change amounted to 2.94%. Besides, the half-maximal activity concentration (AC50) under setting [1] was 0.82 µM [falling, single point]. The AC50 under setting [2] is 6.51 µM [rising, single point].

Regarding `Cc1c(NC(=O)C(C)OC(=O)CCC2CCCC2)c(=O)n(-c2ccccc2)n1C` (stereo not given), the cell number change stood at 2.62%. For the same molecule, under setting [2], the half-maximal activity concentration (AC50) is 18.4 µM [falling, single point].

For the molecule `Oc1cccc(/C=N\Nc2nncc(-c3ccccc3)n2)c1`, the cell number change was -17.3%. In addition, the half-maximal activity concentration (AC50) under setting [2] was 2.06 µM [falling, single point].

Consider `Cc1ccc2cc(CN(C(=O)c3ccco3)c3ccccc3C)c(=O)[nH]c2c1`, for which the cell number change is -15%. Also, under setting [2], the concentration at half-maximal activity (AC50) is 1.3 µM [rising, full curve, poor fit].

As to `CCCc1nc2ccccc2n1CCOC`, the cell number change was found to be 11.2%. Also, the half-maximal activity concentration (AC50) under setting [2] is 16.4 µM [falling, partial curve].

With `CSc1cccc(NC(=O)c2cc(S(=O)(=O)N3CCCCC3)c[nH]2)c1`, the cell number change turned out to be 28.1%. Besides, under setting [2], the concentration at half-maximal activity (AC50) was 18.4 µM [falling, single point].

For the molecule `Cc1ccc(S(=O)(=O)/N=C(\CN2CCOCC2)N2CCCC2)cc1`, the cell number change was 12.2%. For the same molecule, the AC50 under setting [2] was 0.651 µM [falling, single point].

As to `Cc1ccc(C(=O)Nc2nc3ccc(S(C)(=O)=O)cc3s2)cc1C`, the cell number change is -60.3%. The half-maximal activity concentration (AC50) under setting [1] is 9.2 µM [falling, partial curve]. Moreover, under setting [2], the AC50 was 11.6 µM [falling, partial curve].

For `C(=N\Nc1nc2ccccc2[nH]1)/c1ccc2ncccc2c1`, the cell number change was -9.65%. Also, the AC50 under setting [2] is 2.31 µM [rising, partial curve].

For the molecule `CCCN1C(=O)/C(=C\c2nc3ccccc3c(=O)[nH]2)c2ccccc21`, the cell number change is -16.2%. Besides, the AC50 under setting [2] is 32.6 µM [falling, single point].

As to `CCN(CC)CCNC(=O)c1sc2nc(-c3ccccc3)cn2c1C`, the cell number change is -8.07%. In addition, the AC50 under setting [2] was 18.4 µM [falling, single point].

Consider `CCn1c(SCC(=O)Nc2ccc3c(c2)c2ccccc2n3CC)nnc1-c1ccco1`, for which the concentration at half-maximal activity (AC50) by setting is: under setting [1], 0.116 µM [rising, partial curve, poor fit]; under setting [2], 0.116 µM [rising, full curve].

For `CCOc1cc(/C=N/Nc2cccc(C(=O)O)c2)ccc1OCC(=O)N1CCCCC1`, the cell number change turned out to be 31.8%. Further, the AC50 under setting [1] is 0.411 µM [rising, full curve]. Besides, the AC50 under setting [2] is 2.91 µM [rising, partial curve].

For `CCCCn1c(N)c(N(CC)C(=O)C2CCN(C(=O)c3ccccc3C)CC2)c(=O)[nH]c1=O`, the cell number change stood at 16.6%. Further, under setting [2], the AC50 was 0.0326 µM [rising, full curve, poor fit].

In the case of `CC(C)(C)c1cc(S(=O)(=O)CCc2ccccn2)cc(C(C)(C)C)c1F`, the cell number change was determined as 12%. The AC50 under setting [2] was 6.51 µM [rising, single point].

With `CN(CC(=O)Nc1ccccc1Cl)C(=O)c1ccc(COc2ccccc2)cc1`, the cell number change was 1.58%.

For `CCn1c(-c2ccoc2C)n[nH]c1=S`, the cell number change was determined as 180%. In addition, the AC50 under setting [1] is 20.6 µM [rising, single point].

In the case of `O=C(OCn1ncc(Cl)c(Cl)c1=O)c1cccc(C(F)(F)F)c1`, the AC50 is 6.51 µM [falling, single point] under setting [1] and 6.51 µM [falling, single point] under setting [2].

Take `O=[N+]([O-])c1ccc(F)cc1F`: the cell number change worked out at 2.85%. Besides, the concentration at half-maximal activity (AC50) under setting [1] was 0.411 µM [falling, partial curve]. In addition, the concentration at half-maximal activity (AC50) under setting [2] is 0.651 µM [rising, full curve].

On to `COc1ccc(C(C)(C)C)cc1NC(=O)CSc1ncn[nH]1`, for which the cell number change was -11.5%. Besides, under setting [2], the AC50 is 0.326 µM [falling, full curve, poor fit].

Turning to `Cc1ccc(C(=O)c2ccccc2C(=O)OCC(=O)NCCc2ccccc2)cc1`, the cell number change is -22.2%. In addition, the concentration at half-maximal activity (AC50) under setting [2] is 14.6 µM [falling, partial curve].

Regarding `O=C(COC(=O)C1CCN(S(=O)(=O)c2cccs2)CC1)c1ccccc1`, the cell number change was found to be 182%. Further, the AC50 under setting [1] is 29.1 µM [rising, single point].

In the case of `CCOCCCNC(=O)c1ccc2nc(-c3ccc(OC)c(OC)c3)c(-c3ccc(OC)c(OC)c3)nc2c1`, the cell number change was -13.1%. For the same molecule, under setting [2], the concentration at half-maximal activity (AC50) is 11.6 µM [falling, partial curve].

For `CC(=O)NC[C@H]1CN(c2ccc(N3CCOCC3)c(F)c2)C(=O)O1`, the cell number change worked out at 33.6%. Moreover, the concentration at half-maximal activity (AC50) under setting [1] was 13 µM [rising, partial curve]. Further, the AC50 under setting [2] is 5.17 µM [rising, full curve].

On to `CC(C)CC(COCc1ccc(Cl)cc1)N1CCN(C(=O)c2ccc(Cl)cc2Cl)CCC1=O` (stereo not given), for which the cell number change is -56.4%. Moreover, the AC50 under setting [1] was 23.1 µM [falling, partial curve]. For the same molecule, the AC50 under setting [2] is 23.1 µM [falling, partial curve].

As usually defined, the AC50 is the concentration at which the activity in the assay is half-maximal. Low readings indicate activity at low concentration, high ones activity only at high concentration.
